No constants are given. Whether binding was seen depends on the method and setting. In cells and extracts the contact can be indirect. Some binding calls cover weakened binding; strength is not graded here.
Biological target: ESR1 (mouse (endogenous in uterine tissue)) (UniProt P19785)
Experiment: co-IP; day 4 pregnant mouse uterine tissue homogenised in RIPA buffer (10 mM HEPES, 142.5 mM KCl, 5 mM MgCl2, 1 mM EGTA, 0.5% NP-40, pH 7.5); 2 mg protein with 1 ug specific antibody and Protein G Dynabeads overnight at 4 C; immunoblot

By UniProt entry, the sequences of proteins in these tests, tags left out.
UniProt P19785: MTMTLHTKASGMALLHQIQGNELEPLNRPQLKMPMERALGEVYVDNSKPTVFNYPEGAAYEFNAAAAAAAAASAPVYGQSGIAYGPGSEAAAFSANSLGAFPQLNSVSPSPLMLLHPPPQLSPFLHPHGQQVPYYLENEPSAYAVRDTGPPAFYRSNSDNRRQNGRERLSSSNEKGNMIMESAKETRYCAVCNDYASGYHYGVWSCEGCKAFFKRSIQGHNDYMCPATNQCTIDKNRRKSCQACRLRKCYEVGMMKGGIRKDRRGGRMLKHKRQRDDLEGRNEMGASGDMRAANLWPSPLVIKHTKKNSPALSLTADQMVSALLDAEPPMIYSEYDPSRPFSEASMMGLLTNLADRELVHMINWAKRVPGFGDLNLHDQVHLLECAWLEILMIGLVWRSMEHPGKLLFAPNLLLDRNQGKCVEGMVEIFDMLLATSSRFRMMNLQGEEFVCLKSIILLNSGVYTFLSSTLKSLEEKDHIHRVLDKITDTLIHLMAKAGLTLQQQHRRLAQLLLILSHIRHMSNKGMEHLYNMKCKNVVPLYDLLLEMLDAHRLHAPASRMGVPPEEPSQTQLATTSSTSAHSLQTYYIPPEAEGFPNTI

B1: FOXA2 (protein, UniProt P35583 1-459)
chain: MLGAVKMEGHEPSDWSSYYAEPEGYSSVSNMNAGLGMNGMNTYMSMSAAAMGGGSGNMSAGSMNMSSYVGAGMSPSLAGMSPGAGAMAGMSGSAGAAGVAGMGPHLSPSLSPLGGQAAGAMGGLAPYANMNSMSPMYGQAGLSRARDPKTYRRSYTHAKPPYSYISLITMAIQQSPNKMLTLSEIYQWIMDLFPFYRQNQQRWQNSIRHSLSFNDCFLKVPRSPDKPGKGSFWTLHPDSGNMFENGCYLRRQKRFKCEKQLALKEAAGAASSGGKKTAPGSQASQAQLGEAAGSASETPAGTESPHSSASPCQEHKRGGLSELKGAPASALSPPEPAPSPGQQQQAAAHLLGPPHHPGLPPEAHLKPEHHYAFNHPFSINNLMSSEQQHHHSHHHHQPHKMDLKAYEQVMHYPGGYGSPMPGSLAMGPVTNKAGLDASPLAADTSYYQGVYSRPIMNSS
Which binding does the source give for B1 here?
Its binding is “binds”.

— publication PMC5807548
